The record followed here is publication PMC3765318, “An efficient protocol for the purification and labeling of entire yeast septin rods from E.coli for quantitative in vitro experimentation” (BMC Biotechnology, 2013).

Test [1] deals with T1, 6his-Cdc12 (S. cerevisiae) (UniProt P32468).
T1 sequence: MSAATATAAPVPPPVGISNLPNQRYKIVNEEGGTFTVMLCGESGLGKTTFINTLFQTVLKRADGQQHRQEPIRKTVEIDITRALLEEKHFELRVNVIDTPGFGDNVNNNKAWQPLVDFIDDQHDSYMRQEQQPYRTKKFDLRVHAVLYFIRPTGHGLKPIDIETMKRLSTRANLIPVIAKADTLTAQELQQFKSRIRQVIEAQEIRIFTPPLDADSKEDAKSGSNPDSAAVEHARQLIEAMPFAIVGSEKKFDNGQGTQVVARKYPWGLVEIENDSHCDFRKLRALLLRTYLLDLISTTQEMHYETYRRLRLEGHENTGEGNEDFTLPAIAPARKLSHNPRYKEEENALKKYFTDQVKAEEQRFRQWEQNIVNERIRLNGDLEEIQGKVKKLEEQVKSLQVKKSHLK
Put plainly: SEC; purified septin rods on Superose 6 10/300 GL in 300 mM NaCl, 50 mM Tris-HCl pH 8.0; peak fraction analysed by SDS-PAGE and Western blot (anti-Cdc3, anti-6his, anti-S tag); both purified.

In test [2] the target is T1, 6his-Cdc12 (S. cerevisiae). Put plainly: co-purification (IMAC + anion exchange); four septins co-expressed in E. coli; rod captured from the clarified lysate via the 6his tag of Cdc12 on HisTrap-HP, then Resource Q; subunits seen by Coomassie SDS-PAGE.
Test [3] deals with T1, 6his-Cdc12 (S. cerevisiae). Put plainly: isoelectric focusing; purified septin rods on precast pH 3-10 IEF gels; the single band excised and separated by denaturing SDS-PAGE, Coomassie staining; both purified.
Test [4] deals with T2, Cdc10-SNAP labeled with BG-biotin (S. cerevisiae), P25342.
T2 chain: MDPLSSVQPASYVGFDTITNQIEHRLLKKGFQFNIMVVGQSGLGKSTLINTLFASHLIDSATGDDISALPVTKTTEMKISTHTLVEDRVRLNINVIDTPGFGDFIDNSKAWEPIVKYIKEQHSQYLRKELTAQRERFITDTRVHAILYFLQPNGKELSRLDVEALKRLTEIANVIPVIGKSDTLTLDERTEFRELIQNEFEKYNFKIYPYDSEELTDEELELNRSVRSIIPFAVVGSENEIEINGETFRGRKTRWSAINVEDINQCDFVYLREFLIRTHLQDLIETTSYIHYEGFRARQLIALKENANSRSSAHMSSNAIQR
The test can be described thus: SPR; Biacore X100; biotinylated SNAP tagged rod captured through Cdc10-SNAP on an anti-biotin antibody coated CM5 chip; Cdc11 detected by two 60 s pulses of anti-S tag antibody (20 ug/ml) 2 h of washing apart; MSP buffer (10 mM MES, 150 mM NaCl, 0.05% Tween 20, pH 7.4); both purified. As to conditions: remark: other sources report otherwise.

No constants are given. Whether binding was seen depends on the method and setting. Some results given as binding are weak or reduced against the parent protein; the word gives no strength. Tags and fused reporters may be left off the sequences shown.

B1: Cdc10 fused to the S tag (protein, UniProt P25342 1-322)
chain: T2 chain
Take B1: the binding result in test [1], in test [2] and in test [3] was “binds” throughout.

B2: Cdc10-SNAP (protein, UniProt P25342 1-322)
chain: T2 chain
On to B2, for which the binding result in test [1], in test [2] and in test [3] was “binds” throughout.

B3: Cdc11 fused to the S tag, P32458 1-415 (protein)
chain: MSGIIDASSALRKRKHLKRGITFTVMIVGQSGSGRSTFINTLCGQQVVDTSTTILLPTDTSTEIDLQLREETVELEDDEGVKIQLNIIDTPGFGDSLDNSPSFEIISDYIRHQYDEILLEESRVRRNPRFKDGRVHCCLYLINPTGHGLKEIDVEFIRQLGSLVNIIPVISKSDSLTRDELKLNKKLIMEDIDRWNLPIYNFPFDEDEISDEDYETNMYLRTLLPFAIIGSNEVYEMGGDVGTIRGRKYPWGILDVEDSSISDFVILRNALLISHLHDLKNYTHEILYERYRTEALSGESVAAESIRPNLTKLNGSSSSSTTTRRNTNPFKQSNNINNDVLNPASDMHGQSTGENNETYMTREEQIRLEEERLKAFEERVQQELLLKRQELLQREKELREIEARLEKEAKIKQEE
modifications: here or on the partner: biotin, covalently attached with BG-Biotin to the SNAP tag
B3: the binding result in test [4] is “binds”.

B4: FLAG-Cdc3 (protein, UniProt P32457 1-520)
chain: MSLKEEQVSIKQDPEQEERQHDQFNDVQIKQESQDHDGVDSQYTNGTQNDDSERFEAAESDVKVEPGLGMGITSSQSEKGQVLPDQPEIKFIRRQINGYVGFANLPKQWHRRSIKNGFSFNLLCVGPDGIGKTTLMKTLFNNDDIEANLVKDYEEELANDQEEEEGQGEGHENQSQEQRHKVKIKSYESVIEENGVKLNLNVIDTEGFGDFLNNDQKSWDPIIKEIDSRFDQYLDAENKINRHSINDKRIHACLYFIEPTGHYLKPLDLKFMQSVYEKCNLIPVIAKSDILTDEEILSFKKTIMNQLIQSNIELFKPPIYSNDDAENSHLSERLFSSLPYAVIGSNDIVENYSGNQVRGRSYPWGVIEVDNDNHSDFNLLKNLLIKQFMEELKERTSKILYENYRSSKLAKLGIKQDNSVFKEFDPISKQQEEKTLHEAKLAKLEIEMKTVFQQKVSEKEKKLQKSETELFARHKEMKEKLTKQLKALEDKKKQLELSINSASPNVNHSPVPTKKKGFLR
For the molecule B4, the binding result in test [1], in test [2] and in test [3] was “binds” throughout.
